# Laboratory results published in patent US11680885B2, “Method, process, composition and kit for measuring concentration of molecules dissolved in the continuous phase of a colloid” (UNIVERSIDAD TÉCNICA FEDERICO SANTA MARÍA, priority 2017, dated 2023).
# Assay: Measurement of concentration of molecules dissolved in the continuous phase of the standard AuNP@MUA colloid (centrifugation, RP-HPLC with UV-visible detection)
# Type: physicochemical
# Details: n=3
compound,measurement,setting,value
O=C(O)c1cn(C2CC2)c2cc(N3CCNCC3)c(F)cc2c1=O [ciprofloxacin],"concentration in the control samples, equivalent to the continuous phase of the colloid","control samples: particle-free solution extracted from the colloid, 2.00 μM molecule added",2.00 µM
same,concentration of molecules dissolved in the continuous phase of the standard AuNP@MUA colloid,"test samples, after incorporating 2.00 μM of the molecule into the colloid, centrifuged 24,000×g 15 min, average",0.88 µM
